PubChem BioAssay AID1259405, NCATS, 2018

- Purpose: 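Mouse-designed siRNAs used to find CHO productivity engineering targets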 (primary screen)
- Cell system: Chinese hamster CHO-K1 ovary cells with stable secreted eGFP expression
- Reagent: single siRNA against mouse genes, 0.8 pmol siRNA per well (2 µl of 400 nM stock)
- Duration: 3 days
- Detection: 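Percent of the per-plate non-targeting control median for intracellular GFP per well by laser scanning cytometry and for cell viability by ATP luminescence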
- Reading the numbers: GFP, % of control: higher = more GFP per well, higher productivity; viability (ATP), % of control: higher = more viable cells (more ATP)
- Active means: 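Called active when intracellular GFP, relative to negative control, is at or above 120%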
This is an unselected part of about 50,000 reagents tested. In the full data, about 4,000 (8%) were called active. 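Mouse siRNA library applied to hamster cells; one well for each siRNA.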 Entries without a mark were called inactive. Reagents against one gene are numbered here.

| GFP, % of control | viability (ATP), % of control | Gene | reagent no. |
| --- | --- | --- | --- |
| 84.5 | 76.5 | Dab2ip (disabled 2 interacting protein) | 1 |
| 41 | 27 | Dab2ip (disabled 2 interacting protein) | 2 |
| 84.5 | 65.5 | Dab2ip (disabled 2 interacting protein) | 3 |
| 67.2 | 71 | Tmem150a (transmembrane protein 150A) | 1 |
| 89.8 | 116 | Tmem150a (transmembrane protein 150A) | 2 |
| 64.6 | 89 | Tmem150a (transmembrane protein 150A) | 3 |
| 83 | 73.4 | Kbtbd8 (kelch repeat and BTB (POZ) domain containing 8) | 1 |
| 82.3 | 118 | Kbtbd8 (kelch repeat and BTB (POZ) domain containing 8) | 2 |
| 99.7 | 113 | Kbtbd8 (kelch repeat and BTB (POZ) domain containing 8) | 3 |
| 44.6 | 41.7 | Timm21 (translocase of inner mitochondrial membrane 21) | 1 |
| 53.1 | 34.4 | Timm21 (translocase of inner mitochondrial membrane 21) | 2 |
| 77.7 | 81.6 | Timm21 (translocase of inner mitochondrial membrane 21) | 3 |
| 58.5 | 65.4 | Fktn (fukutin) | 1 |
| 98.6 | 74.1 | Fktn (fukutin) | 2 |
| 65.4 | 82.1 | Fktn (fukutin) | 3 |
| 49.6 | 60 | Rnf151 (ring finger protein 151) | 1 |
| 33.1 | 66.7 | Rnf151 (ring finger protein 151) | 2 |
| 70.5 | 82.5 | Rnf151 (ring finger protein 151) | 3 |
| 61.2 | 65.7 | Lmod2 (leiomodin 2 (cardiac)) | 1 |
| 91.7 | 77.5 | Lmod2 (leiomodin 2 (cardiac)) | 2 |
| 96.6 | 83.3 | Lmod2 (leiomodin 2 (cardiac)) | 3 |
| 51 | 53.6 | Zpbp2 (zona pellucida binding protein 2) | 1 |
| 68 | 59.8 | Zpbp2 (zona pellucida binding protein 2) | 2 |
| 69.4 | 105 | Zpbp2 (zona pellucida binding protein 2) | 3 |
| 103 | 64.1 | Polq (polymerase (DNA directed), theta) | 1 |
| 128 (active) | 97.8 | Polq (polymerase (DNA directed), theta) | 2 |
| 92.8 | 98.9 | Polq (polymerase (DNA directed), theta) | 3 |
| 110 | 73.4 | Or13c7d (olfactory receptor family 13 subfamily C member 7D) | 1 |
| 73.8 | 71.9 | Or13c7d (olfactory receptor family 13 subfamily C member 7D) | 2 |
| 38.9 | 50.6 | Or13c7d (olfactory receptor family 13 subfamily C member 7D) | 3 |
| 200 (active) | 69.8 | Pcnx1 (pecanex 1) | 1 |
| 67.7 | 77 | Pcnx1 (pecanex 1) | 2 |
| 64.1 | 81.5 | Pcnx1 (pecanex 1) | 3 |
| 91.6 | 75.3 | Il17d (interleukin 17D) | 1 |
| 55.3 | 63.1 | Il17d (interleukin 17D) | 2 |
| 53.1 | 71.2 | Il17d (interleukin 17D) | 3 |
| 63.8 | 74.8 | Kank1 (KN motif and ankyrin repeat domains 1) | 1 |
| 88.3 | 75.4 | Kank1 (KN motif and ankyrin repeat domains 1) | 2 |
| 55.6 | 32.5 | Kank1 (KN motif and ankyrin repeat domains 1) | 3 |
| 83.5 | 81.8 | Fosl1 (fos-like antigen 1) | 1 |
| 91.6 | 57 | Fosl1 (fos-like antigen 1) | 2 |
| 122 (active) | 77.7 | Vmn1r76 (vomeronasal 1 receptor 76) | 1 |
| 83.9 | 93.6 | Vmn1r76 (vomeronasal 1 receptor 76) | 2 |
| 57.2 | 58.5 | Vmn1r76 (vomeronasal 1 receptor 76) | 3 |
| 123 (active) | 74.4 | Micall2 (MICAL-like 2) | 1 |
| 74.4 | 62.2 | Micall2 (MICAL-like 2) | 2 |
| 102 | 95.9 | Micall2 (MICAL-like 2) | 3 |
| 108 | 56.6 | B4galt7 (beta-1,4-galactosyltransferase 7) | 1 |
| 56.9 | 98.5 | B4galt7 (beta-1,4-galactosyltransferase 7) | 2 |
| 82.1 | 103 | B4galt7 (beta-1,4-galactosyltransferase 7) | 3 |
| 60.7 | 66.3 | Igfn1 | 1 |
| 88.3 | 84.6 | Igfn1 | 2 |
| 73.4 | 69.6 | Igfn1 | 3 |

Looked up above:
For “GFP, % of control”, Fktn (fukutin) #3 is entered as 65.4
Entry of Il17d (interleukin 17D) #1 under “viability (ATP), % of control”: 75.3
For “GFP, % of control”, Or13c7d (olfactory receptor family 13 subfamily C member 7D) #2 has 73.8
Entry for Kank1 (KN motif and ankyrin repeat domains 1) #3 under “viability (ATP), % of control”: 32.5
For “viability (ATP), % of control”, Vmn1r76 (vomeronasal 1 receptor 76) #3 reads 58.5
Pcnx1 (pecanex 1) #1, GFP, % of control: 200 (active)

Further results follow.
| GFP, % of control | viability (ATP), % of control | Gene | reagent no. |
| --- | --- | --- | --- |
| 31.4 | 34.7 | Rp9 (retinitis pigmentosa 9 (human)) | 1 |
| 79.6 | 67.8 | Rp9 (retinitis pigmentosa 9 (human)) | 2 |
| 55.9 | 50.5 | Rp9 (retinitis pigmentosa 9 (human)) | 3 |
| 76.1 | 75.4 | Nipsnap3b (nipsnap homolog 3B) | 1 |
| 100 | 75.9 | Nipsnap3b (nipsnap homolog 3B) | 2 |
| 109 | 78 | Nipsnap3b (nipsnap homolog 3B) | 3 |
| 117 | 82.2 | Id2 (inhibitor of DNA binding 2) | 1 |
| 67.7 | 40.3 | Id2 (inhibitor of DNA binding 2) | 2 |
| 119 | 98.7 | Id2 (inhibitor of DNA binding 2) | 3 |
| 80.8 | 97.4 | Abhd6 (abhydrolase domain containing 6) | 1 |
| 105 | 86.9 | Abhd6 (abhydrolase domain containing 6) | 2 |
| 125 (active) | 117 | Abhd6 (abhydrolase domain containing 6) | 3 |
| 72.9 | 50.8 | Mbnl1 (muscleblind like splicing regulator 1) | 1 |
| 76.1 | 87.5 | Mbnl1 (muscleblind like splicing regulator 1) | 2 |
| 74.2 | 73 | Mbnl1 (muscleblind like splicing regulator 1) | 3 |
| 50.6 | 62 | Nek6 (NIMA (never in mitosis gene a)-related expressed kinase 6) | 1 |
| 130 (active) | 85.4 | Nebl (nebulette) | 1 |
| 86 | 82 | Nebl (nebulette) | 2 |
| 134 (active) | 81.8 | Nebl (nebulette) | 3 |
| 57.9 | 80.2 | Krt71 (keratin 71) | 1 |
| 89.2 | 78.8 | Krt71 (keratin 71) | 2 |
| 175 (active) | 80.2 | Krt71 (keratin 71) | 3 |
| 133 (active) | 67.7 | Pomgnt1 | 1 |
| 93.9 | 68 | Pomgnt1 | 2 |
| 70.3 | 51.5 | Pomgnt1 | 3 |
| 125 (active) | 76 | Rnf222 (ring finger protein 222) | 1 |
| 17 | 20.9 | Rnf222 (ring finger protein 222) | 2 |
| 32.5 | 35.9 | Rnf222 (ring finger protein 222) | 3 |
| 94.4 | 68 | Csnk1d (casein kinase 1, delta) | 1 |
| 88.6 | 72.5 | Csnk1d (casein kinase 1, delta) | 2 |
| 67.9 | 72.2 | Csnk1d (casein kinase 1, delta) | 3 |
